Assay results from patent US10633383B2, “Compounds for the treatment, alleviation or prevention of disorders associated with Tau aggregates” (AC Immune SA, priority 2018, dated 2020).
At least one structure is not confirmed: it was looked up by name or label, or the drawing left a doubt.

Tests used:
[1] = system: rTg4510 mice; test: Histology for misfolded Tau (MC1) in rTg4510 mice; assay type: in vivo, mouse; settings: 30 mg/kg bi-daily by gavage for 1 month, frontal cortex (FIG. 2)
Description: (§1) In Vivo Efficacy of the Compounds of the Present Invention In Vivo Study Design for the Testing of Example 12 and Example 45
(§2) Double transgenic rTg4510 mice express the full-length human Tau carrying the P301L mutation (Tau4R0N-P301L) under the control of the tet-inducible CaMKII promoter (Ramsden et al., J. Neurosci., 2005⋅25(46):10637-10647). Single transgenic mice expressing only the tetracycline-controlled transactivator (tTA) were used as genotype controls. The study comprised 4 treatment groups (n=15 female for tTa group and n=11 female mice/group for the treatment) with the following group distribution (see Table 9). […]
(§3) After perfusion, brains were then removed and hemi-sagitally hemisected. […] A systematic random set of sections from seven sagittal levels per animal was used to quantify the Iba1 and CD68 immunoreactivity while 1 section/animal from the medio-lateral level 4 were used to assess Tau misfolding (MC1 monoclonal antibody). […] Sections were imaged using a digital slide scanner (Panoramic 250 Flash, 3D Histech Ltd.) and quantified using the image visualization software Visiopharm.
MC1 staining was analyzed in the frontal cortex in the upper cortical layers. […] This ROI was analyzed in Visiopharm using a predetermined threshold for MC1 staining with a pixel intensity threshold above 30 (8 bits pictures) and excluding all detected objects smaller than 20 μm^2. […]

[2] = system: rTg4510 mice; test: Total human Tau in CSF of rTg4510 mice (AlphaLISA); assay type: in vivo, mouse; settings: 30 mg/kg bi-daily by gavage for 1 month, vs vehicle treated rTg4510 mice (FIG. 1)
Description: as §1, §2
Mice were deeply anesthetized by standard injectable anesthesia and transcardially perfused with cold PBS. […] Total human Tau in CSF Tau was quantified using the following antibody pairs: HT7-Acceptor beads+biotin (BT)-Tau13-donor beads. […]
After incubation of this mixture at room temperature for 1 hour, 25 μL of Streptavidin Donor beads (Perkin Elmer) at 25 μg/mL were added in the dark. Plates were analyzed after 30 minute incubation using the EnSpire Alpha instrument and EnSpire Workstation version 3.00. Data were analyzed by 1-way ANOVA followed by post-hoc comparisons and shown statistics refers to differences compared to vehicle treated rTg4510 mice.

[3] = system: rTg4510 mice; test: Histology for neuroinflammation markers (Iba1, CD68) in rTg4510 mice; assay type: in vivo, mouse
Description: as §1
as §2, with “9). Compounds or vehicle control were administered once daily or bi-daily by gavage for 1 month starting at the age of 5 months. All mice received 200 ppm doxycycline in chow for 3 weeks plus a loading dose in drinking water for the first two days at 1.5 mg/mL in 4% sucrose.” for “9).”
as §3, with “Visiopharm. […]” for “Visiopharm.”

[4] = system: Tau NFTs in human AD and PSP brain sections; test: Reduction of Tau misfolding in NFTs from human AD and PSP brain sections (MC1 staining); settings: 100 μM, around 60 hours at room temperature; AD and PSP human brain sections (FIG. 4)
[5] = system: Tau NFTs in human AD brain samples; test: Ex-vivo high resolution autoradiography with 3H-Example 45 in human AD brain sections; assay type: binding; settings: [3H]-Example 45 at 20 nM alone or with 5 μM non-radioactive Example 45; human AD brain sections (FIG. 5)

## Fc1ccc2c3c([nH]c2c1)CCN(c1ccc2oc(N4CCOCC4)nc2c1)C3 [Example 45, 5-(7-fluoro-1,3,4,5-tetrahydropyrido[4,3-b]indol-2-yl)-2-morpholino-1,3-benzoxazole]
[1]
  MC1 positive area (misfolded Tau): decreased the MC1 positive area
[2]
  Tau levels in CSF: decreased Tau levels in CSF
[3]; 30 mg/kg bi-daily by gavage for 1 month (FIG. 3A)
  microgliosis measured as Iba1 immunoreactive area: decreased microgliosis
[3]; 30 mg/kg bi-daily by gavage for 1 month (FIG. 3B)
  activated phagocytic microglial cells positive for CD68: decreased highy activated phagocytic migroglial cells
[4]
  reduction of Tau misfolding in NFTs: around 30%
[5]
  target engagement on Tau NFTs: specific target engagement on Tau NFTs
